In article PMC9045647:
These are yes or no findings as the source states them, for the method shown. In cells and extracts the contact can be indirect. Some binding calls cover weakened binding; strength is not graded here. Tags and fused reporters may be left off the sequences shown.

Sequences of proteins named here, by UniProt entry; tags and fusion partners are left off.
UniProt P9WQ69: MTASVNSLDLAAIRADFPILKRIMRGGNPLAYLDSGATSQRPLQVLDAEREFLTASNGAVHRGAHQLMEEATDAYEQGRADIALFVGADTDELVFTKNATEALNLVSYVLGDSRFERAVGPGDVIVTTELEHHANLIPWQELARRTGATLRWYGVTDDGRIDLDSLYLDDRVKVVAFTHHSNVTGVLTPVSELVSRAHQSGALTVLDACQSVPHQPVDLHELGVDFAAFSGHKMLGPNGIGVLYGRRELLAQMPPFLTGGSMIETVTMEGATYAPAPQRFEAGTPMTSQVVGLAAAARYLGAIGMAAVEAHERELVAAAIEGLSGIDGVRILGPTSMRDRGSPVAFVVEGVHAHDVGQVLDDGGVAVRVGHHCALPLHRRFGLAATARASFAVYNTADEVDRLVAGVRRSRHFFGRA
UniProt O53166: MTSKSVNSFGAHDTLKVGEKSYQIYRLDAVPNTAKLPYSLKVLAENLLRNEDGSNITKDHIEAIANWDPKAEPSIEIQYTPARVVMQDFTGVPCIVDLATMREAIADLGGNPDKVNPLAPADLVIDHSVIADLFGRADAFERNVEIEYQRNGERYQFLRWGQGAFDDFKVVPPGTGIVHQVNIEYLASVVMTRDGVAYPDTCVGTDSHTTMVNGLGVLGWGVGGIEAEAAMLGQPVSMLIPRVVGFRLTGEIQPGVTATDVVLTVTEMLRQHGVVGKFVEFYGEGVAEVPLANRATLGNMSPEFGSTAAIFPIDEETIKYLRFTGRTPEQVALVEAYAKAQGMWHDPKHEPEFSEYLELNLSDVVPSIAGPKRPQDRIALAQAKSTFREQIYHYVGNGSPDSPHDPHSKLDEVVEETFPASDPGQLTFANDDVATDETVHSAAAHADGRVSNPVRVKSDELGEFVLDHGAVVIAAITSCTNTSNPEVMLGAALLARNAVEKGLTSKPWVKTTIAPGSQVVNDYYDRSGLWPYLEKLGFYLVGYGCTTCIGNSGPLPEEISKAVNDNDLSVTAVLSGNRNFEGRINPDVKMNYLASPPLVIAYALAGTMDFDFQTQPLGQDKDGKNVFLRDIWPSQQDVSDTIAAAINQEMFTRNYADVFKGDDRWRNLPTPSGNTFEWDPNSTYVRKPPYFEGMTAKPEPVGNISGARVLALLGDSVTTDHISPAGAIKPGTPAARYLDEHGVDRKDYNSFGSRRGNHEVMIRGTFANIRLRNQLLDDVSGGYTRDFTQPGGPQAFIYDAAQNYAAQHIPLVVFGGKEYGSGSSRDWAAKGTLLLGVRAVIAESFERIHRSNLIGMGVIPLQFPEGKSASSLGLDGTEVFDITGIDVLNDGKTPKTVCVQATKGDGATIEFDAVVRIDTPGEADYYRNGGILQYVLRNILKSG
UniProt P03069: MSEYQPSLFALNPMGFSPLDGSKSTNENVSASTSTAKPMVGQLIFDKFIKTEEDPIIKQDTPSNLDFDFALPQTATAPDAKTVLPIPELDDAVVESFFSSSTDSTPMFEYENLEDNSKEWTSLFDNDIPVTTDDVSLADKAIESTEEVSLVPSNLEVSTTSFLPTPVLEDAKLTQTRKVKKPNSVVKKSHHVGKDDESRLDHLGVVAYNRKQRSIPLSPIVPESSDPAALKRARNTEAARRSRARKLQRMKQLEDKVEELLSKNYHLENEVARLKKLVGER

Key:
Test in all cases: split reporter
[1] = biological target: T1, Mtb SufR (Rv1460) fused to mDHFR fragment F[1,2] (Mycobacterium tuberculosis) (UniProt O53151)
T1 sequence: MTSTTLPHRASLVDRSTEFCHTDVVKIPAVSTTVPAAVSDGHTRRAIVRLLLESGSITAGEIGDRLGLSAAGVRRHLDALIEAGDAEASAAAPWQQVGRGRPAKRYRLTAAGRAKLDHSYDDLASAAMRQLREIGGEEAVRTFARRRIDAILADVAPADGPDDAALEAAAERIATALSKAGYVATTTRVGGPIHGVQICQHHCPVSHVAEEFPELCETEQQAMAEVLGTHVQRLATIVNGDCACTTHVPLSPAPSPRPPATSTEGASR

[2] = biological target: Mtb SufS (Rv1464) fused to mDHFR fragment F[1,2] (Mycobacterium tuberculosis) (UniProt P9WQ69)
[3] = biological target: T2, Mtb SufT (Rv1466), wild type, fused to an mDHFR fragment for M-PFC (Mycobacterium tuberculosis) (UniProt O53157)
T2 sequence: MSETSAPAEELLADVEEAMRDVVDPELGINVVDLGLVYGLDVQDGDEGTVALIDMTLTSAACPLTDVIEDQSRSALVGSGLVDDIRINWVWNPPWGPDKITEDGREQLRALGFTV

[4] = biological target: Mtb aconitase (Acn) fused to mDHFR fragment F[1,2] (Mycobacterium tuberculosis) (UniProt O53166)
[5] = biological target: yeast GCN4 fused to an mDHFR fragment for M-PFC (yeast) (UniProt P03069)

B1: Mtb SufT (Rv1466), wild type, fused to an mDHFR fragment for M-PFC (protein, UniProt O53157 1-115)
chain: MSETSAPAEELLADVEEAMRDVVDPELGINVVDLGLVYGLDVQDGDEGTVALIDMTLTSAACPLTDVIEDQSRSALVGSGLVDDIRINWVWNPPWGPDKITEDGREQLRALGFTV
- binding [1]: binds
- binding [2]: binds
- binding [3]: binds
- binding [4]: binds
- binding [5]: no binding
